Measured values taken from patent US11576979B2, “Pyrrolobenzodiazepine prodrugs and antibody conjugates thereof” (GENENTECH, INC., priority 2016, dated 2023).

Assays:
KPL-4 Cell line = experiment: Cell viability, DTD-activated quinone prodrugs (Example 15); type: cell-based
Experimental: (§1) The toxicity of PBD dimer diaphorase prodrug 1, PBD monomer diaphorase prodrug 2, PBD dimer control 1 and PBD monomer control 1 were evaluated against KPL-4 and WSU cell lines for cell viability. The KPL-4 cell line is was a high DTD cell line characterized by NQO1 nRPKM of 839 and the WSU cell line was a low DTD cell line characterized by a NQO1 nRPKM of 1.36. The IC50 ratios are based on the prodrug IC50 value relative to the PBD dimer control.

WSU Cell line = experiment: as above; type: cell-based
Experimental: as §1

Row | SMILES | Ratio (prodrug IC50 relative to control) (KPL-4 Cell line) | Ratio (prodrug IC50 relative to control) (WSU Cell line)
1 | C=C1C[C@H]2C(O)N(C(=O)OCc3cc4c(n3C)C(=O)C=C(OC)C4=O)c3cc(OC)c(OC)cc3C(=O)N2C1 (stereo partly shown) [PBD monomer diaphorase prodrug 2] | 1 | 5
2 | C=C1C[C@H]2C=Nc3cc(OCCCCCOc4cc5c(cc4OC)C(=O)N4CC(=C)C[C@H]4C(O)N5C(=O)OCc4cc5c(n4C)C(=O)C=C(OC)C5=O)c(OC)cc3C(=O)N2C1 (stereo partly shown) [PBD dimer diaphorase prodrug 1] | 17 | 43
